Data on 1 molecule can be found in patent publication US5468734A, “Prophylactic and remedial preparation for diseases attendant on hyperglycemia, and wholesome food” (Godo Shusei Co., Ltd., priority 1992, dated 1995).

Where two headings read alike, the source gives them in different places.

This data set is classed as in vivo, ICR male mice. The text has this: (Action to depress increase in body weight of mice)
ICR male mice after the elapse of 5 weeks from their birth were used in proportions of 10 mice per group.
Mice of a control group were caused to freely ingest the same feed as those used in the run groups except that L-arabinose was not added.
The mice of each group were separately weighed after 10 days, 20 days, 30 days and 60 days from the beginning of the ingestion to determine their weight increases from the initial weights, thereby calculating an average value of the weights increased in each group. The amounts of the feeds and water ingested were also determined.

[1] abbreviates: 0.5% in feed (Group 1 / A1), after 10 days.
The mark [2] stands for this setting: 0.5% in feed (Group 1 / A1), after 20 days.
The mark [3] stands for this setting: 0.5% in feed (Group 1 / A1), after 30 days.
The mark [4] stands for this setting: 0.5% in feed (Group 1 / A1), after 60 days.
The mark [5] stands for this setting: 1.0% in feed (Group 2 / A2), after 10 days.
Where [6] appears, read: 1.0% in feed (Group 2 / A2), after 20 days.
Setting [7] is: 1.0% in feed (Group 2 / A2), after 30 days.
The mark [8] stands for this setting: 1.0% in feed (Group 2 / A2), after 60 days.
[9] abbreviates: 2.0% in feed (Group 3 / A3), after 10 days.
Setting [10] is: 2.0% in feed (Group 3 / A3), after 20 days.
Setting [11] is: 2.0% in feed (Group 3 / A3), after 30 days.
Setting [12] is: 2.0% in feed (Group 3 / A3), after 60 days.

In the case of `O=C[C@H](O)[C@@H](O)[C@@H](O)CO` [L-Arabinose, L-arabinose], the “Amount of feed ingested” value under setting [1] is 2.9 g/day; the “Amount of feed ingested” value under setting [2] is recorded as 3.1 g/day; the “Amount of feed ingested” value under setting [3] is given as 3.4 g/day; the “Amount of feed ingested” value under setting [4] is recorded as 3.9 g/day; the “Amount of feed ingested” value under setting [5] is listed as 2.8 g/day; the “Amount of feed ingested” value under setting [6] is on record as 3.1 g/day. In addition, the “Amount of feed ingested” value reads like this: under setting [7], 3.4 g/day; under setting [8], 3.8 g/day; under setting [9], 2.7 g/day; under setting [10], 3.1 g/day; under setting [11], 3.3 g/day; under setting [12], 3.7 g/day. Also, the “Amount of water ingested” value amounted to 2.1 g/day under setting [1]; 2.7 g/day under setting [2]; 2.8 g/day under setting [3]; 3.1 g/day under setting [4]; 2.3 g/day under setting [5]; 2.8 g/day under setting [6]. Also, the “Amount of water ingested” value is listed as 3.0 g/day under setting [7]; 3.2 g/day under setting [8]; 2.3 g/day under setting [9]; 2.9 g/day under setting [10]; 3.1 g/day under setting [11]; 3.3 g/day under setting [12].
